Measurements reported in paper PMC11809377.
These are yes or no findings as the source states them, for the method shown. Binding seen in cells or lysates may run through a third protein. Some results given as binding are weak or reduced against the parent protein; the word gives no strength. For some of these results: Sequences can lack the tags named with a protein. Values belong to the molecule of their own block, whether it stands above or below them.

Sequences of proteins named here, by UniProt entry; tags and fusion partners are left off. Residues count along the entry.
UniProt Q02248: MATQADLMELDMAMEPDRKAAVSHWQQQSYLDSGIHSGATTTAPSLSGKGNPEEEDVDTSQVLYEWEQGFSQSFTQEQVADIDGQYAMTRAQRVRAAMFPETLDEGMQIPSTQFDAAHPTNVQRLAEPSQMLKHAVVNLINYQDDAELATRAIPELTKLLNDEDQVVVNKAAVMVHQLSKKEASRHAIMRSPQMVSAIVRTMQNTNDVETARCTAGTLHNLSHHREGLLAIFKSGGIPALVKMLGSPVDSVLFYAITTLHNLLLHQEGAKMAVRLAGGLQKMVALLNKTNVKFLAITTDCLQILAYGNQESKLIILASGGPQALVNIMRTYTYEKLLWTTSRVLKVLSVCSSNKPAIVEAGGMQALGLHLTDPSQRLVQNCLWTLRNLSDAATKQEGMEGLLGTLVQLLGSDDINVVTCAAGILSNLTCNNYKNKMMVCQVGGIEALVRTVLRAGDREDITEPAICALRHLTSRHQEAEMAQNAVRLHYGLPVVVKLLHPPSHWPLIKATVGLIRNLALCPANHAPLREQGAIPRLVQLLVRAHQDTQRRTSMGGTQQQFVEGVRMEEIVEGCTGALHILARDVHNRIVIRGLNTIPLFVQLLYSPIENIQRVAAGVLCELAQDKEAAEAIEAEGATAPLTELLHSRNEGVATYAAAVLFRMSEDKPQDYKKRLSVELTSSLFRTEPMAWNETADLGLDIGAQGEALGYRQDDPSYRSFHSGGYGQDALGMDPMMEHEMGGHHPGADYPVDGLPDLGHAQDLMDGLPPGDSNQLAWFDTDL
UniProt P15116, residues 160-906: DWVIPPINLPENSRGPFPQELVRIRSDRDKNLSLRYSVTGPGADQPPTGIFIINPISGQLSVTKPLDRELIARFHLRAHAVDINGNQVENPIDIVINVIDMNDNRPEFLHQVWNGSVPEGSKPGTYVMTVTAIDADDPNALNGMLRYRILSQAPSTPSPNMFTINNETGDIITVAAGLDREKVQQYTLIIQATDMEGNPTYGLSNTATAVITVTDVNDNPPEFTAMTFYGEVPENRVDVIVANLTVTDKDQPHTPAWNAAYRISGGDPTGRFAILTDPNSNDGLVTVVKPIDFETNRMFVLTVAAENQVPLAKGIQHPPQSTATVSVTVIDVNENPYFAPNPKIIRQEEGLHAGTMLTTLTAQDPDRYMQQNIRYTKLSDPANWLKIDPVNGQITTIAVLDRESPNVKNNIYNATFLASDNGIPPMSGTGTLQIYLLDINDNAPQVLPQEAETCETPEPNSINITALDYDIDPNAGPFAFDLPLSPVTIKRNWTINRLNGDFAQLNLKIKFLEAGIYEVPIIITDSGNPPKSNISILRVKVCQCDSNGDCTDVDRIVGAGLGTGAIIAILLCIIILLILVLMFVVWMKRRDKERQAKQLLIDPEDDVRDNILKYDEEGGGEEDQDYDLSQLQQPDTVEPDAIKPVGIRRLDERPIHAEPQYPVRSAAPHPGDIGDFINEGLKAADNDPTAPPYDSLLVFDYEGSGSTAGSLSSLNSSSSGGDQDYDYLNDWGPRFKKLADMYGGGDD
UniProt Q8VIM5: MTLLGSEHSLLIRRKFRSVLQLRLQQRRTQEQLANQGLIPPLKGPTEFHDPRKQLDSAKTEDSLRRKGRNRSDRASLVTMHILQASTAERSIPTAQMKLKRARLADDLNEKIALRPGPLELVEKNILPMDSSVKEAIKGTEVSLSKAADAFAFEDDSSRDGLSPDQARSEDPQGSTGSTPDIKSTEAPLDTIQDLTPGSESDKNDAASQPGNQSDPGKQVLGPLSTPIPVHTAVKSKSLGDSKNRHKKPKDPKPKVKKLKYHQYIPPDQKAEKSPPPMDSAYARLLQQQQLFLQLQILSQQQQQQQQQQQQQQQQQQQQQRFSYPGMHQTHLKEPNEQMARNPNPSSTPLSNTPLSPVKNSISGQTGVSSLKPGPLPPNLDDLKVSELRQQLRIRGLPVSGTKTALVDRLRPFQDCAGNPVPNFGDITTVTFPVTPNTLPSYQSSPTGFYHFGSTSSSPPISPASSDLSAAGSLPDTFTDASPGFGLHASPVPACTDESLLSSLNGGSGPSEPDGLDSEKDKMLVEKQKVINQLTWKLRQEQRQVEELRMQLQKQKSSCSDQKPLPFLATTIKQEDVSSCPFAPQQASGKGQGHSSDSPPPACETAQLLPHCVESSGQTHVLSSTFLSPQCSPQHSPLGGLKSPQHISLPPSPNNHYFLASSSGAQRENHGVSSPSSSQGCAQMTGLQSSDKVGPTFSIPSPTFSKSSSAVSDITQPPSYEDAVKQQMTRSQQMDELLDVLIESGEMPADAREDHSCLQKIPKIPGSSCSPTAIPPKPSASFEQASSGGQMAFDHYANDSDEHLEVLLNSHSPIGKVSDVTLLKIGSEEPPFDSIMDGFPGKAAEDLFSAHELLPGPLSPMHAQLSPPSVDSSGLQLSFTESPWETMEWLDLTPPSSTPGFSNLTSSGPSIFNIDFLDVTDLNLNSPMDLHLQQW

How the values were obtained:
[1] = biological target: T1, serum response factor (mouse (endogenous in primary mouse VSMCs and carotid arteries)) (UniProt Q9JM73); test: co-IP; tissue lysates of injured carotid arteries of control and SMC‐specific Ttk knockout mice; NP40 lysis buffer, protein A&G agarose beads; immunoblotting
T1 sequence: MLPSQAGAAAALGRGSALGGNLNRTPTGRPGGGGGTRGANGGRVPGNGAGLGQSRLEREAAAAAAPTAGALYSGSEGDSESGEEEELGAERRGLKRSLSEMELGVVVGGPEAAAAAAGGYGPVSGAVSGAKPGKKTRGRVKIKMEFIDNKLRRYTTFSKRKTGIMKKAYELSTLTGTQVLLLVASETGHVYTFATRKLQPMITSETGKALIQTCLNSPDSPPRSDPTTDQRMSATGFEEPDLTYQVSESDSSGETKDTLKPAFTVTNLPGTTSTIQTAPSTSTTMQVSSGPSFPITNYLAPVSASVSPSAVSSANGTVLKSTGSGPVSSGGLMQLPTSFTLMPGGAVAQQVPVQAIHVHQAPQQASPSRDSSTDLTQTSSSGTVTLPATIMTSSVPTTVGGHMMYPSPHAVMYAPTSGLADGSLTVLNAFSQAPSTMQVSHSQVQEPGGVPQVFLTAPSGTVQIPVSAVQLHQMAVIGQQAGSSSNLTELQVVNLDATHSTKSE

[2] = biological target: β‐catenin (mouse (endogenous in primary mouse VSMCs and carotid arteries)) (UniProt Q02248); test: co-IP; lysates (NP40 lysis buffer) of VSMCs, endogenous proteins; immunoprecipitated with anti‐β‐catenin or anti‐SRF antibodies, protein A&G agarose beads; also in cells with empty vector or LV‐TTK, p120‐wt or p120‐T310A, with or without 40 nM BC2059
[3] = biological target: T1, serum response factor (mouse (endogenous in primary mouse VSMCs and carotid arteries)); test: as above
[4] = biological target: N‐cadherin (mouse (endogenous in primary mouse VSMCs and carotid arteries)) (UniProt P15116); test: co-IP; tissue lysates of injured carotid arteries of control and SMC‐specific Ttk knockout mice; NP40 lysis buffer, protein A&G agarose beads; immunoblotting
[5] = biological target: N‐cadherin (mouse (endogenous in primary mouse VSMCs and carotid arteries)) (UniProt P15116); test: co-IP; lysates (NP40 lysis buffer) of VSMCs co‐transfected with empty vector or LV‐TTK and p120‐wt or p120‐T310A; immunoprecipitated with anti‐N‐cadherin antibodies, protein A&G agarose beads; immunoblotting
[6] = biological target: T2, Hemagglutinin (HA)‐tagged TTK protein kinase (UniProt P35761); test: co-IP; lysates (NP40 lysis buffer) of VSMCs transfected with the HA‐tagged TTK lentivirus; immunoprecipitated with anti‐HA, anti‐p120 or anti‐Irf2bpl antibodies overnight at 4 °C, protein A&G agarose beads; immunoblotting
T2 sequence: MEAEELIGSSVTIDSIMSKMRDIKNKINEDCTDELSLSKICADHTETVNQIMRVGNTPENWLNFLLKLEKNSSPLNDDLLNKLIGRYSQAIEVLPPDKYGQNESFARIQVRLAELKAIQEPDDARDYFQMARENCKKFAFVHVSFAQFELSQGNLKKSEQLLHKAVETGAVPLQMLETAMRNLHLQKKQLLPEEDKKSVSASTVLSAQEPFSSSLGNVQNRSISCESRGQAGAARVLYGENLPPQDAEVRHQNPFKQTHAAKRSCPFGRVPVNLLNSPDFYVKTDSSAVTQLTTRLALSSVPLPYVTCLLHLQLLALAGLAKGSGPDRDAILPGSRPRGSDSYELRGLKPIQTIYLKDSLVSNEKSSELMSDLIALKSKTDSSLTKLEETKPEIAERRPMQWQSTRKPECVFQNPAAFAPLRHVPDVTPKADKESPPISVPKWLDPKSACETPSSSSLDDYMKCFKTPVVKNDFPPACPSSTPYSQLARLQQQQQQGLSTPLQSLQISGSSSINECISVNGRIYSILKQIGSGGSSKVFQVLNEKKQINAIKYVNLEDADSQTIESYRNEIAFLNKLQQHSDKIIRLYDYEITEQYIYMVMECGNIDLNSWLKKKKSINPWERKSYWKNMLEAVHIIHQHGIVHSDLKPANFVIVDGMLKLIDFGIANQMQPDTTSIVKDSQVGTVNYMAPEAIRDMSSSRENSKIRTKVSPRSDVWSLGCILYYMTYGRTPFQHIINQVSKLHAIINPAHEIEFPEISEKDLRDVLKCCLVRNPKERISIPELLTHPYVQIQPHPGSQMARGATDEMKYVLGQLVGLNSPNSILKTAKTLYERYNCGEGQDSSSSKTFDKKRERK

binding [2]: binds
binding [3]: binds
Molecule: myocardin (from UniProt Q8VIM5 1-935)
binding [1]: binds

binding [5]: binds
Molecule: β‐catenin (from UniProt Q02248 1-781)
binding [4]: binds

binding [2]: binds
B1: serum response factor (protein, UniProt Q9JM73 1-504)
chain: T1 sequence

B2: p120‐catenin (protein, UniProt P30999 1-938)
chain: MDDSEVESTASILASVKEQEAQFEKLTRALEEERRHVSAQLERVRVSPQDANSLMANGTLTRRHQNGRFVGDADLERQKFSDLKLNGPQDHNHLLYSTIPRMQEPGQIVETYTEEDPEGAMSVVSVETTDDGTTRRTETTVKKVVKTMTTRTVQPVPMGPDGLPVDASAVSNNYIQTLGRDFRKNGNGGPGPYVGQAGTATLPRNFHYPPDGYGRHYEDGYPGGSDNYGSLSRVTRIEERYRPSMEGYRAPSRQDVYGPQPQVRVGGSSVDLHRFHPEPYGLEDDQRSMGYDDLDYGMMSDYGTARRTGTPSDPRRRLRSYEDMIGEEVPPDQYYWAPLAQHERGSLASLDSLRKGMPPPSNWRQPELPEVIAMLGFRLDAVKSNAAAYLQHLCYRNDKVKTDVRKLKGIPILVGLLDHPKKEVHLGACGALKNISFGRDQDNKIAIKNCDGVPALVRLLRKARDMDLTEVITGTLWNLSSHDSIKMEIVDHALHALTDEVIIPHSGWEREPNEDCKPRHIEWESVLTNTAGCLRNVSSERSEARRKLRECDGLVDALIFIVQAEIGQKDSDSKLVENCVCLLRNLSYQVHREIPQAERYQEALPTVANSTGPHAASCFGAKKGKDEWFSRGKKPTEDPANDTVDFPKRTSPARGYELLFQPEVVRIYISLLKESKTPAILEASAGAIQNLCAGRWTYGRYIRSALRQEKALSAIAELLTSEHERVVKAASGALRNLAVDARNKELIGKHAIPNLVKNLPGGQQNSSWNFSEDTVVSILNTINEVIAENLEAAKKLRETQGIEKLVLINKSGNRSEKEVRAAALVLQTIWGYKELRKPLEKEGWKKSDFQVNLNNASRSQSSHSYDDSTLPLIDRNQKSDKKPDREEIPMSNMGSNTKSLDNNYSTLNERGDHNRTLDRSGDLGDMEPLKGAPLMQKI
binding [6]: binds
